# Measured values: the supplement of paper PMC8728848
# Some of the results follow.
# B1: HA-00510 (Pseudomonas aeruginosa), Q02V39_PSEAB (protein)
# chain: GVPIVNIATPNGAGLSNNHFRDYNVGANGLILNNATGKTQGTQLGGIILGNPNLKGQAAQVILNQVTGGNRSTLAGYTEVAGQSARVIVANPHGITCQGCGFINTPRATLTTGKPIMDGQRLERFQVDGGDIVVEGAELNVGNLEQFDLITRSAKLNAKLYAKNLNIVTGRNDVQADSLQATPRAADGSEKPQLAIDSSALGGMYAGAIRLVGTEQGVGVKLAGDMAASGGDIRIDASGKLSLAQASSQGDLKIAAQAVELNGKTYAGGSAEIRSAEELVNRQS
# Columns and labels:
# Assay in all cases: glycan array binding signal (z-score within array); higher = stronger binding
# Conditions in all cases: glycan notation: IUPAC condensed, linker removed
# [1] = biological target: Gal(b1-4)GlcNAc(b1-6)Gal(b1-4)GlcNAc
# In short: (§1)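 Arrays were curated from the Consortium for Functional Glycomics database, 3228 in total, and kept only where the protein sequence was available. Binding is expressed as a within-array Z-score. This score was averaged across arrays of the same protein sequence at different concentrations or buffers and across linkers, and negative values can be read as non-binding.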
# [2] = biological target: Gal(b1-4)GlcNAc(b1-6)GalNAc
# In short: as §1
# [3] = biological target: Gal(b1-4)GlcNAc(b1-6)[Gal(b1-3)]GalNAc
# In short: as §1
# [4] = biological target: Gal(b1-4)GlcNAc(b1-6)[Gal(b1-4)GlcNAc(b1-3)]GalNAc
# In short: as §1
# Gal(b1-4)GlcNAc6P = biological target: Gal(b1-4)GlcNAc6P
# In short: as §1
# Gal(b1-6)Gal = biological target: Gal(b1-6)Gal
# In short: as §1
# Gal3S(b1-3)GalNAc = biological target: Gal3S(b1-3)GalNAc
# In short: as §1
# Gal3S(b1-3)GlcNAc = biological target: Gal3S(b1-3)GlcNAc
# In short: as §1
# [5] = biological target: Gal3S(b1-3)[Fuc(a1-4)]GlcNAc
# In short: as §1
# Gal3S(b1-4)Glc = biological target: Gal3S(b1-4)Glc
# In short: as §1
# Gal3S(b1-4)Glc6S = biological target: Gal3S(b1-4)Glc6S
# In short: as §1
# Gal3S(b1-4)GlcNAc = biological target: Gal3S(b1-4)GlcNAc
# In short: as §1
# [6] = biological target: Gal3S(b1-4)[Fuc(a1-3)]Glc6S
# In short: as §1
# [7] = biological target: Gal3S(b1-4)[Fuc(a1-3)]GlcNAc
# In short: as §1
# [8] = biological target: Gal3S(b1-4)[Fuc(a1-3)]GlcNAc6S
# In short: as §1
# Gal3S4S(b1-4)GlcNAc = biological target: Gal3S4S(b1-4)GlcNAc
# In short: as §1
# Gal3S6S(b1-4)GlcNAc = biological target: Gal3S6S(b1-4)GlcNAc
# In short: as §1
# Gal3S6S(b1-4)GlcNAc6S = biological target: Gal3S6S(b1-4)GlcNAc6S
# In short: as §1
# Gal4S(b1-4)GlcNAc = biological target: Gal4S(b1-4)GlcNAc
# In short: as §1
# Gal4S6S(b1-4)GlcNAc = biological target: Gal4S6S(b1-4)GlcNAc
# In short: as §1
# Gal6P(b1-4)GlcNAc = biological target: Gal6P(b1-4)GlcNAc
# In short: as §1
# Gal6S(b1-3)GlcNAc = biological target: Gal6S(b1-3)GlcNAc
# In short: as §1
# Gal6S(b1-3)GlcNAc6S = biological target: Gal6S(b1-3)GlcNAc6S
# In short: as §1
# Gal6S(b1-4)Glc = biological target: Gal6S(b1-4)Glc
# In short: as §1
# Gal6S(b1-4)Glc6S = biological target: Gal6S(b1-4)Glc6S
# In short: as §1
# Gal6S(b1-4)GlcNAc = biological target: Gal6S(b1-4)GlcNAc
# In short: as §1
# Gal6S(b1-4)GlcNAc6S = biological target: Gal6S(b1-4)GlcNAc6S
# In short: as §1
# GalNAc(a1-3)Gal = biological target: GalNAc(a1-3)Gal
# In short: as §1
# GalNAc(a1-3)GalNAc = biological target: GalNAc(a1-3)GalNAc
# In short: as §1
# [9] = biological target: GalNAc(a1-3)GalNAc(b1-3)Gal(a1-4)Gal(b1-4)Glc
# In short: as §1
# [10] = biological target: GalNAc(a1-3)GalNAc(b1-3)Gal(a1-4)Gal(b1-4)GlcNAc
# In short: as §1
# GalNAc(b1-3)Gal = biological target: GalNAc(b1-3)Gal
# In short: as §1
# [11] = biological target: GalNAc(b1-3)Gal(a1-4)Gal(b1-4)GlcNAc
# In short: as §1
# [12] = biological target: GalNAc(b1-3)Gal(a1-4)Gal(b1-4)GlcNAc(b1-3)Gal(b1-4)Glc
# In short: as §1
# [13] = biological target: GalNAc(b1-3)Gal(a1-6)Gal(b1-4)Glc
# In short: as §1
# GalNAc(b1-3)GalNAc = biological target: GalNAc(b1-3)GalNAc
# In short: as §1
# GalNAc(b1-3)GlcNAc = biological target: GalNAc(b1-3)GlcNAc
# In short: as §1
# GalNAc(b1-4)Gal(b1-4)Glc = biological target: GalNAc(b1-4)Gal(b1-4)Glc
# In short: as §1
binder,measurement,setting,value
B1,glycan array binding signal (z-score),[1],-0.446
same,glycan array binding signal (z-score),[2],0.013
same,glycan array binding signal (z-score),[3],-0.945
same,glycan array binding signal (z-score),[4],-0.374
same,glycan array binding signal (z-score),Gal(b1-4)GlcNAc6P,-0.894
same,glycan array binding signal (z-score),Gal(b1-6)Gal,-0.435
same,glycan array binding signal (z-score),Gal3S(b1-3)GalNAc,0.37
same,glycan array binding signal (z-score),Gal3S(b1-3)GlcNAc,-0.431
same,glycan array binding signal (z-score),[5],-0.123
same,glycan array binding signal (z-score),Gal3S(b1-4)Glc,0.114
same,glycan array binding signal (z-score),Gal3S(b1-4)Glc6S,0.418
same,glycan array binding signal (z-score),Gal3S(b1-4)GlcNAc,-0.217
same,glycan array binding signal (z-score),[6],0.258
same,glycan array binding signal (z-score),[7],0.486
same,glycan array binding signal (z-score),[8],0.896
same,glycan array binding signal (z-score),Gal3S4S(b1-4)GlcNAc,-0.526
same,glycan array binding signal (z-score),Gal3S6S(b1-4)GlcNAc,0.402
same,glycan array binding signal (z-score),Gal3S6S(b1-4)GlcNAc6S,0.86
same,glycan array binding signal (z-score),Gal4S(b1-4)GlcNAc,-0.364
same,glycan array binding signal (z-score),Gal4S6S(b1-4)GlcNAc,-0.44
same,glycan array binding signal (z-score),Gal6P(b1-4)GlcNAc,-1.59
same,glycan array binding signal (z-score),Gal6S(b1-3)GlcNAc,-0.953
same,glycan array binding signal (z-score),Gal6S(b1-3)GlcNAc6S,-0.403
same,glycan array binding signal (z-score),Gal6S(b1-4)Glc,0.154
same,glycan array binding signal (z-score),Gal6S(b1-4)Glc6S,-0.594
same,glycan array binding signal (z-score),Gal6S(b1-4)GlcNAc,-0.516
same,glycan array binding signal (z-score),Gal6S(b1-4)GlcNAc6S,1.41
same,glycan array binding signal (z-score),GalNAc(a1-3)Gal,0.138
same,glycan array binding signal (z-score),GalNAc(a1-3)GalNAc,-0.842
same,glycan array binding signal (z-score),[9],0.53
same,glycan array binding signal (z-score),[10],1.03
same,glycan array binding signal (z-score),GalNAc(b1-3)Gal,-0.69
same,glycan array binding signal (z-score),[11],-0.153
same,glycan array binding signal (z-score),[12],-0.536
same,glycan array binding signal (z-score),[13],-0.551
same,glycan array binding signal (z-score),GalNAc(b1-3)GalNAc,-0.859
same,glycan array binding signal (z-score),GalNAc(b1-3)GlcNAc,0.295
same,glycan array binding signal (z-score),GalNAc(b1-4)Gal(b1-4)Glc,-0.476

# Some of the entries so far, with tabs:
binder	measurement	setting	value
B1	glycan array binding signal (z-score)	Gal4S(b1-4)GlcNAc	-0.364
same	glycan array binding signal (z-score)	Gal4S6S(b1-4)GlcNAc	-0.44
same	glycan array binding signal (z-score)	Gal6P(b1-4)GlcNAc	-1.59
same	glycan array binding signal (z-score)	Gal6S(b1-3)GlcNAc	-0.953
same	glycan array binding signal (z-score)	Gal6S(b1-3)GlcNAc6S	-0.403
same	glycan array binding signal (z-score)	Gal6S(b1-4)Glc	0.154
same	glycan array binding signal (z-score)	Gal6S(b1-4)Glc6S	-0.594
same	glycan array binding signal (z-score)	Gal6S(b1-4)GlcNAc	-0.516
same	glycan array binding signal (z-score)	Gal6S(b1-4)GlcNAc6S	1.41
